Test system: RCAR11-HAB1
Assay: In vitro phosphatase assay, HAB1 with RCAR11
Assay type: biochemical, Arabidopsis thaliana
Details: Fig. 3D

Row | SMILES | Statistical significance of RCAR11-mediated inhibition of HAB1 phosphatase activity vs ABA (0.003 µM) | Statistical significance of RCAR11-mediated inhibition of HAB1 phosphatase activity vs ABA (0.01 µM) | Statistical significance of RCAR11-mediated inhibition of HAB1 phosphatase activity vs ABA (0.03 µM) | Statistical significance of RCAR11-mediated inhibition of HAB1 phosphatase activity vs ABA (0.1 µM) | Statistical significance of RCAR11-mediated inhibition of HAB1 phosphatase activity vs ABA (0.3 µM) | Statistical significance of RCAR11-mediated inhibition of HAB1 phosphatase activity vs ABA (1 µM) | Statistical significance of RCAR11-mediated inhibition of HAB1 phosphatase activity vs ABA (3 µM) | Statistical significance of RCAR11-mediated inhibition of HAB1 phosphatase activity vs ABA (10 µM) | Statistical significance of RCAR11-mediated inhibition of HAB1 phosphatase activity vs ABA (30 µM) | Statistical significance of RCAR11-mediated inhibition of HAB1 phosphatase activity vs ABA (100 µM) | Statistical significance of RCAR11-mediated inhibition of HAB1 phosphatase activity vs CCP1 (0.003 µM) | Statistical significance of RCAR11-mediated inhibition of HAB1 phosphatase activity vs CCP1 (0.01 µM) | Statistical significance of RCAR11-mediated inhibition of HAB1 phosphatase activity vs CCP1 (0.03 µM) | Statistical significance of RCAR11-mediated inhibition of HAB1 phosphatase activity vs CCP1 (0.1 µM) | Statistical significance of RCAR11-mediated inhibition of HAB1 phosphatase activity vs CCP1 (0.3 µM) | Statistical significance of RCAR11-mediated inhibition of HAB1 phosphatase activity vs CCP1 (1 µM) | Statistical significance of RCAR11-mediated inhibition of HAB1 phosphatase activity vs CCP1 (3 µM) | Statistical significance of RCAR11-mediated inhibition of HAB1 phosphatase activity vs CCP1 (10 µM) | Statistical significance of RCAR11-mediated inhibition of HAB1 phosphatase activity vs CCP1 (30 µM) | Statistical significance of RCAR11-mediated inhibition of HAB1 phosphatase activity vs CCP1 (100 µM)
1 | CC(=C/C(=O)O)/C=C/C(O)(C(C)C)C1(C#N)CC1 (stereo not drawn) [CCP1, (2Z,4E)-6-(1-cyanocyclopropyl)-3-methyl-6-hydroxy-7-methylocta-2,4-dienoic acid] | ns (Otherwise, the difference is regarded as insignificant indicated as “ns”) | ns (Otherwise, the difference is regarded as insignificant indicated as “ns”) | ns (Otherwise, the difference is regarded as insignificant indicated as “ns”) | ns (Otherwise, the difference is regarded as insignificant indicated as “ns”) | ns (Otherwise, the difference is regarded as insignificant indicated as “ns”) | ns (Otherwise, the difference is regarded as insignificant indicated as “ns”) | ns (Otherwise, the difference is regarded as insignificant indicated as “ns”) | ns (Otherwise, the difference is regarded as insignificant indicated as “ns”) | ns (Otherwise, the difference is regarded as insignificant indicated as “ns”) | ns (Otherwise, the difference is regarded as insignificant indicated as “ns”) | – | – | – | – | – | – | – | – | – | –
2 | CCC(=C/C(=O)O)/C=C/C(O)(C(C)C)C1(C#N)CC1 (stereo not drawn) [CCP2] | ns (Otherwise, the difference is regarded as insignificant indicated as “ns”) | ns (Otherwise, the difference is regarded as insignificant indicated as “ns”) | ns (Otherwise, the difference is regarded as insignificant indicated as “ns”) | ns (Otherwise, the difference is regarded as insignificant indicated as “ns”) | s (P < 0.05 (one-way ANOVA) is considered as a significant difference and expressed as “s”) | ns (Otherwise, the difference is regarded as insignificant indicated as “ns”) | ns (Otherwise, the difference is regarded as insignificant indicated as “ns”) | ns (Otherwise, the difference is regarded as insignificant indicated as “ns”) | ns (Otherwise, the difference is regarded as insignificant indicated as “ns”) | ns (Otherwise, the difference is regarded as insignificant indicated as “ns”) | ns (Otherwise, the difference is regarded as insignificant indicated as “ns”) | ns (Otherwise, the difference is regarded as insignificant indicated as “ns”) | ns (Otherwise, the difference is regarded as insignificant indicated as “ns”) | s (P < 0.05 (one-way ANOVA) is considered as a significant difference and expressed as “s”) | s (P < 0.05 (one-way ANOVA) is considered as a significant difference and expressed as “s”) | ns (Otherwise, the difference is regarded as insignificant indicated as “ns”) | ns (Otherwise, the difference is regarded as insignificant indicated as “ns”) | ns (Otherwise, the difference is regarded as insignificant indicated as “ns”) | ns (Otherwise, the difference is regarded as insignificant indicated as “ns”) | ns (Otherwise, the difference is regarded as insignificant indicated as “ns”)

— paper PMC9894685, “Abscisic acid agonists suitable for optimizing plant water use” (Frontiers in Plant Science, 2023)
